Reference: PubChem BioAssay AID504791 (Drosophila RNAi Screening Center, 2011)

Purpose: 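Genes whose knock-down strengthens or weakens small-RNA reporter silencing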 (primary screen)
Cell system: Drosophila S2-derived reporter cells
Reagent: long dsRNA against Drosophila genes, about 150-250 ng dsRNA per well (siRNA assay); about 80-120 ng (miRNA assay)
Duration: about 5 days (siRNA assay); about 4 days (miRNA assay)
Conditions: copper sulfate induction of reporters: 25 µM (siRNA assay); 200 mM stated (miRNA assay), 1-2 days before reading
Measurement: 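Per-well ratio of Renilla over firefly light, expressed relative to that plate's average ratio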
Call rule: 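First-pass picks had plate-scaled ratios over 1.5 for the siRNA assay, over 1.6 for the miRNA assay, or under 0.6; two distinct dsRNAs had to score alike on retest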
In all, the deposit lists about 23,000 reagents; shown is an unselected part of those that have a named target and a result. In the full data, 199 (0.86%) were called active. 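Plate-scaled ratios behind the calls are not deposited; printed light signals are raw; many rows marked increased or decreased are still called inactive.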 Entries without a mark were called inactive. A plus sign joins genes that one reagent is predicted to hit. No sequences are given here. Not stated in the record: the direction of the score.

no.	Gene	amplicon	stable siRNA reporter change	miRNA reporter change	stable assay Renilla, run 1 (luminescence)	stable assay firefly, run 1 (luminescence)
1	Tmem214	DRSC02924			8231	4.54e5
2	Tmem214	DRSC02925			8036	5.68e5
3	x16	DRSC00960			5002	3.89e5
4	x16	DRSC03638			11229	8.10e5
5	IntS3	DRSC21215			7107	5.00e5
6	CG3819	DRSC10378			6899	4.82e5
7	Zmynd10	DRSC09826			5811	3.98e5
8	sac	DRSC12237			7167	3.74e5
9	Tsp3A	DRSC18656			6114	4.08e5
10	nAChRalpha7	DRSC20078			5915	3.78e5
11	nAChRalpha7	DRSC20081			5204	3.00e5
12	CG14515	DRSC14867			6076	5.12e5
13	CG1791	DRSC18141			7870	3.42e5
14	Ocho	DRSC11239			7178	2.77e5
15	CG14219	DRSC19576			5320	4.35e5
16	Pdi	DRSC11250			7807	3.28e5
17	Met	DRSC20284			5346	4.13e5
18	CG31975 + ovm	DRSC00323			7015	3.76e5
19	CG12490	DRSC04123			6214	3.62e5
20	lectin-46Cb	DRSC06611			5679	4.24e5
21	CG34232	DRSC05332			5062	3.15e5
22	ND-PDSW	DRSC00715			34735	2.01e5
23	dome	DRSC19583			6727	4.08e5
24	Daao1	DRSC06131			6978	4.15e5
25	CG7768	DRSC10914			8374	2.48e5
26	hebe	DRSC05192			4648	4.54e5
27	hebe	DRSC06605			5643	4.25e5
28	hebe	DRSC21614			8871	5.14e5
29	Abcd3	DRSC19488			7266	5.60e5
30	CG31191	DRSC13455			4915	5.06e5
31	CG31191	DRSC15214			7692	3.15e5
32	CG31191	DRSC15215			5606	2.55e5
33	Plekhm1	DRSC04527			6124	3.41e5
34	CG14280	DRSC14761			8407	4.03e5
35	Inx5	DRSC20051			6199	4.01e5
36	Obp99d	DRSC15046			5851	4.38e5
37	CG11275	DRSC04095			7571	4.62e5
38	CG3513	DRSC00608			7224	3.59e5
39	CG34430	DRSC06499			6551	3.59e5
40	Asph	DRSC06783			6306	3.78e5
41	Asph	DRSC07171			8667	3.65e5
42	Cndp2	DRSC04873			6910	3.60e5
43	Ir60a	DRSC04212			5976	3.15e5
44	Elovl7	DRSC15452			7386	3.90e5
45	Elovl7	DRSC21570			9407	4.44e5
46	CG33012	DRSC06287			6878	3.84e5
47	CG33012	DRSC06288			6914	4.22e5
48	CG13248	DRSC11696			7551	4.54e5
49	Adk1	DRSC15514			6384	4.27e5
50	CG30440	DRSC04775			7166	6.84e5
51	CG30440	DRSC04845			5543	4.12e5
52	CG30440	DRSC04855		reporter ratio lowered past the hit cutoff	6270	3.69e5
53	Rab9Db + Rab9Fa	DRSC18445			5604	4.76e5
54	CG31054 (retired record) + CG4849	DRSC28625		reporter ratio raised past the hit cutoff		
55	MBD-like	DRSC16996			6044	3.77e5
56	rswl	DRSC06923			8003	3.02e5
57	Epg5	DRSC14778			7823	4.12e5
58	CG13137	DRSC02234			8218	3.49e5
59	CG15822	DRSC08482			5816	3.07e5
60	CG15822	DRSC08483			5443	3.00e5
61	CG15696	DRSC15118			7035	3.38e5
62	bic	DRSC07584		reporter ratio raised past the hit cutoff (active)	7114	3.27e5
63	CR31032	DRSC22457			3484	3.66e5
64	plh	DRSC12294			7211	4.09e5
65	Cpr62Bb	DRSC08404			5816	3.55e5
66	slv	DRSC07685			7646	4.50e5
67	CG12929	DRSC06242			5962	3.62e5
68	Qsox4	DRSC14224			9217	3.52e5
69	Tcs6 + PIG-P	DRSC13742			4647	3.52e5
70	Tcs6 + PIG-P	DRSC14893			6935	3.66e5
71	CG5556	DRSC00687			4698	4.19e5
72	CG31365	DRSC15610			7444	2.91e5
73	CG14230	DRSC19586			8311	5.06e5
74	ChAT	DRSC13314			4024	3.84e5
75	ChAT	DRSC16609			7610	3.07e5
76	ChAT	DRSC22755			3652	3.34e5
77	RpL23	DRSC04648			6356	3.24e5
78	RanBP3	DRSC14217			8399	3.38e5
79	RanBP3	DRSC23153			3780	2.94e5
80	CG4021	DRSC04439			6514	3.66e5
81	CG32281	DRSC08236			7127	4.25e5
82	CG42715 (retired record)	DRSC05499	reporter ratio lowered past the hit cutoff		5614	6.52e5
83	robl	DRSC07674			7432	4.67e5
84	nsl1	DRSC15625			18788	6.14e5
85	CG13131	DRSC02227			7444	4.17e5
86	CG13131	DRSC23253			4455	3.75e5
87	SCCRO4	DRSC10671			6698	4.65e5
88	CG10232	DRSC14218			7270	3.60e5
89	qkr58E-1	DRSC04709			13851	5.40e5
90	CG32170	DRSC09452			6710	4.18e5
91	tst + CG10375	DRSC14237			10762	4.16e5
92	put	DRSC17039			9030	3.90e5
93	Art6	DRSC16583			7983	4.83e5
94	CG5292	DRSC15763			6590	3.24e5
95	CG13062	DRSC09945			6890	3.80e5
96	Theg	DRSC16023			11435	5.47e5
97	CG7406	DRSC20042			6043	5.40e5
98	CG7406	DRSC28709		reporter ratio raised past the hit cutoff		
99	wrd	DRSC16337			5720	2.27e5
100	wrd	DRSC16344			7504	4.25e5
101	wrd	DRSC23189			2511	2.09e5
102	Arpc3B	DRSC20126			2780	3.01e5
103	CG31997	DRSC17105			7856	3.89e5
104	CG34251	DRSC09498			5604	4.01e5
105	CG34251	DRSC09500			6908	5.04e5
106	Ada1-1 + Ada1-2	DRSC01220			5451	4.37e5
107	Ada1-1 + Ada1-2	DRSC01222			4970	3.78e5
